In the assay the target is T1, YFP-D6PK (D6 PROTEIN KINASE) (Arabidopsis thaliana) (UniProt Q9FG74).
T1 sequence: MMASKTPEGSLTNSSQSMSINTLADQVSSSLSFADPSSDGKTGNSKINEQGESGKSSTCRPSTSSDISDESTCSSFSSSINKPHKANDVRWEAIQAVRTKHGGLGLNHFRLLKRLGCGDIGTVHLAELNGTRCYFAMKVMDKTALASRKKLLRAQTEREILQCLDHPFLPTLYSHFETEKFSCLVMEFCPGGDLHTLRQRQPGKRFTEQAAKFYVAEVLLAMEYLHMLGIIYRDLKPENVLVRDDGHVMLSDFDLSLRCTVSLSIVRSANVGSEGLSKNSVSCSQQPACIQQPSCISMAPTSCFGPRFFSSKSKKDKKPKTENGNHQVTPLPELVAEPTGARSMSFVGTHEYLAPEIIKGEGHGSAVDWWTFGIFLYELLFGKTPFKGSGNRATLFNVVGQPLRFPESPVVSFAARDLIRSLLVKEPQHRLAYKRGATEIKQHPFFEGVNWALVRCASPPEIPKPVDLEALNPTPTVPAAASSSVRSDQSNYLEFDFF
As to the kind of experiment: co-IP.

This note sets out measurements from doi:10.1101/755504 (bioRxiv, 2019).

No constants are given. Whether binding was seen depends on the method and setting. In cells and extracts the contact can be indirect. Some binding calls cover weakened binding; strength is not graded here. Sequences can lack the tags named with a protein.

B1: GST-PDK1.1 (enzyme, Arabidopsis thaliana, UniProt Q9XF67 1-491, looked up)
chain: MLAMEKEFDSKLVLQGNSSNGANVSRSKSFSFKAPQENFTSHDFEFGKIYGVGSYSKVVRAKKKETGTVYALKIMDKKFITKENKTAYVKLERIVLDQLEHPGIIKLYFTFQDTSSLYMALESCEGGELFDQITRKGRLSEDEARFYTAEVVDALEYIHSMGLIHRDIKPENLLLTSDGHIKIADFGSVKPMQDSQITVLPNAASDDKACTFVGTAAYVPPEVLNSSPATFGNDLWALGCTLYQMLSGTSPFKDASEWLIFQRIIARDIKFPNHFSEAARDLIDRLLDTEPSRRPGAGSEGYVALKRHPFFNGVDWKNLRSQTPPKLAPDPASQTASPERDDTHGSPWNLTHIGDSLATQNEGHSAPPTSSESSGSITRLASIDSFDSRWQQFLEPGESVLMISAVKKLQKITSKKVQLILTNKPKLIYVDPSKLVVKGNIIWSDNSNDLNVVVTSPSHFKICTPKKVLSFEDAKQRASVWKKAIETLQNR
Take B1: the binding result was “binds”.
